From US20080311589A1, “METHOD OF HIGH-THROUGHPUT SCREENING OF MOLECULES AND COMPOUNDS FOR THEIR EFFECTS ON BIOLOGICAL AND CHEMICAL PROCESSES” (priority 1999, published 2008)
“Also recorded” adds a separate entry of the source. At least one structure is not confirmed: it was looked up by name or label, or the drawing left a doubt.

Columns and labels:
Type in all cases: cell-based
[1] = tested on: Mv1Lu mink lung epithelial cells; assay: 384 well anti-BrdU cytoblot; settings: 384-well plate; antiproliferative agents 24 hours, then 10 μM BrdU 16 hours (FIG. 2)
Text: FIG. 1. An immunodetection assay for DNA synthesis in high density arrays of mammalian cells. (a) Cartoon depiction of an anti-BrdU cytoblot. The thymine analog 5-bromodeoxyuridine (BrdU) is incorporated into the DNA of cells that are actively replicating their DNA. The cells are in the well, and BrdU is detected with a two step antibody binding procedure. The second antibody is conjugated to the enzyme horseradish peroxidase. In the presence of the chemiluminescent substrate luminol as well as hydrogen peroxide, light of wavelength 428 nm is generated. The light emission can be detected by exposing the plate to film. (b) A cytoblot can detect TGF-β's ability to prevent BrdU incorporation in mink lung epithelial cells. 2000 Mv1Lu mink lung epithelial cells were seeded in each well of a white, opaque 384 well plate. The cells were seeded in the indicated concentrations of TGF-β in 50 μL of DMEM with 1% fetal bovine serum (FBS), 100 units/mL penicillin G sodium, 100 μg/mL streptomycin sulfate and 100 μM each of the amino acids alanine, aspartic acid, glutamine, glycine, asparagine and proline (referred to throughout as 1% mink medium) and allowed to incubate at 37° C. with 5% CO2. After 16 hours, 5.5 μL of 100 μM BrdU in 1% mink medium was added to each well, for a final concentration of 10 μM BrdU. […]

[2] = tested on: p3TPLux in 6F mink lung cells; assay: antagonism of p3TPLux activation in 6F mink lung cells
Experimental: LUCIFERASE ASSAYS: Our transient transfection luciferase assay was described previously by us (Stockwell et al., Chem Biol 5:385, 1998). Briefly, 100,000 Mv1Lu mink lung epithelial cells were transiently transfected in 12-well dishes with 400 ng p3TPLux or pNFkB-Lux, with or without 50 ng pFC-MEKK, in 300 μL minimal essential medium with non-essential amino acids. The DEAE-dextran/chloroquine/DMSO methods was used for transfection (Stockwell et al., Chem Biol 6:71, 1999). After cell lysis in 120 μL lysis buffer, a Beckman LS 6500 liquid scintillation counter was used in single photon mode to quantitate luminescence. For detection of luciferase activity in 6F cells (including the primary screen), 20,000 6F cells were seeded in 50 μL of 10% mink medium in each well of a white 384-well plate (Nalge Nune International; Naperville, Ill.; cat#164610) using a Multidrop 384 liquid dispenser (Lab Systems; Helsinki, Finland). After 16 hours, medium was removed using a 24 channel wand (V&P Scientific, Inc.; San Diego, Calif.; cat#VP 186L), the cells were washed with 75 μL of 0.2% mink medium (containing 0.2% FBS), and reagents were added in 40 μL of 0.2% medium. For the primary screen, reagents were added by pin transfer using 384 polypropylene pin arrays (Matrix Technologies; Hudson, N.H.). After 24 hours, the cells were cooled on ice and washed twice with 75 μL Hanks Balanced Salt Solution (HBSS; GibcoBRL; cat#24020-117). Then 20 μL lysis buffer (25 mM glycylglycine (Sigma; cat#E-0396), 1% Triton X-100 (Sigma; cat#T-9284), 1 mM dithiothreitol (DTT; Sigma; cat#D-5545), 1 mM phenylmethylsulfonyl fluoride (PMSF; Sigma; cat#P-7626)) was added to each well with a Multidrop. After incubating the cells for five minutes on ice, 20 μL of ATP/luciferin solution was added (25 mM glycylglycine pH 7.8, 15 mM MgSO4, 4 mM EGTA, 6.25 mM K2HPO4 (Sigma; cat#P5504) pH 7.8, 5 mM DTT, 75 μM D-luciferin (Sigma, cat# L-9504, 2 mM ATP (Sigma; cat#A-7699)). Light output was immediately measured with an Analyst 384-well platereader (LJL), with 0.5 second counting time per well.

[3] = tested on: 6F mink lung epithelial cells; assay: anti-BrdU cytoblot for suppressors of rapamycin; settings: FK506 with rapamycin or trapoxin, 24 hours then BrdU 16 hours
Text: FIG. 9. […] A 4 mm scale bar is shown. […] A 4 mm scale bar is shown.

[4] = TGFβ-responsive reporter in mink lung epithelial cells

SMILES	BrdU incorporation [1]	suppression of reporter activation by copper ([2]; TGFβ-responsive reporter)	suppression of reporter activation by 1a [2, 4]	suppression of reporter activation by 2 [2, 4]	suppression of reporter activation by TGFβ [2, 4]	suppression of the antiproliferative effect of rapamycin or trapoxin [3]
CO[C@H]1C[C@@H]2CC[C@@H](C)[C@@](O)(O2)C(=O)C(=O)N2CCCC[C@H]2C(=O)O[C@H]([C@H](C)C[C@@H]2CC[C@@H](O)[C@H](OC)C2)CC(=O)[C@H](C)/C=C(\C)[C@@H](O)[C@@H](OC)C(=O)[C@H](C)C[C@H](C)/C=C/C=C/C=C/1C [rapamycin]	effectively prevent BrdU incorporation					
CCN(CC)C(=S)S [DDC, Diethyldithiocarbamate]		suppressed activation by copper	not by 1a	blocked	suppressed activation by copper and by TGFβ	
C=CC[C@@H]1/C=C(\C)C[C@H](C)C[C@H](OC)[C@H]2O[C@@](O)(C(=O)C(=O)N3CCCC[C@H]3C(=O)O[C@H](/C(C)=C/[C@@H]3CC[C@@H](O)[C@H](OC)C3)[C@H](C)[C@@H](O)CC1=O)[C@H](C)C[C@@H]2OC [FK506]	fails to prevent BrdU incorporation					suppresses the antiproliferative effect of rapamycin but not trapoxin; also recorded: suppresses the anti-proliferative activity of rapamycin, but not trapoxin
